According to patent publication US6599894B1, “Amidinobenzylamine derivatives and their use as thrombin inhibitors” (AstŕaZeneca AB, priority 1999, dated 2003):
Structures can show the parent of a compound that is named as a salt. Some entries share one result that the patent states for a list of compounds. At least one structure is not confirmed: it was looked up by name or label, or the drawing left a doubt.

How the values were obtained:
Human thrombin = molecular target: T1, Human thrombin (Homo sapiens, UniProt P00734); test: Test A: determination of thrombin clotting time (TT); assay type: biochemical; settings: concentration of inhibitor that doubles the thrombin clotting time in plasma
T1 construct: the conversion of the proenzyme prothrombin to the active enzyme thrombin; purchased Sigma Chem. Co or Hematologic Technologies T 6769

[1] = Test G: metabolic activation of prodrug compounds in vitro; assay type: in vitro ADME; settings: incubation at 37° C. with human or rat liver microsomes or s9 fraction, NADH and NADPH present

CS(=O)(=O)c1cccc(C(O)C(=O)N2CCC2C(=O)NCc2ccc(C(=N)N)cc2)c1 (single isomer, unassigned) [Example 4, Ph(3-SO2Me)-(R) or-(S)CH(OH)C(O)-Aze-Pab×TFA]
IC50 (Human thrombin): < 500 nM

CC(=O)N(C)c1cc(Cl)cc(C(O)C(=O)N2CCC2C(=O)NCc2ccc(C(=N)N)cc2)c1 (single isomer, unassigned) [Example 5, Ph(3-Cl,5-NMeAc)-(R) or-(S)CH(OH)C(O)-Aze-Pab×TFA]
IC50 (Human thrombin): < 500 nM

CC(=O)N(C)c1cccc(C(O)C(=O)N2CCC2C(=O)NCc2ccc(C(=N)N)cc2)c1 (single isomer, unassigned) [Example 7, Ph(3-NMeAc)-(R) or-(S)CH(OH)C(O)-Aze-Pab×HOAc]
IC50 (Human thrombin): < 500 nM

CN(C)c1cc(C(O)C(=O)N2CCC2C(=O)NCc2ccc(C(=N)N)cc2)cc(C(F)(F)F)c1 (single isomer, unassigned) [Example 8, Ph(3-NMe2,5-CF3)-(R) or-(S)CH(OH)C(O)-Aze-Pab×TFA]
IC50 (Human thrombin): < 500 nM

N=C(N)c1ccc(CNC(=O)C2CCN2C(=O)C(O)c2cccc(N3CCCC3=O)c2)cc1 (single isomer, unassigned) [Example 10, Ph(3-(1-Pyrrolidin-2-one))-(R) or-(S)CH(OH)C(O)-Aze-Pab×HOAc]
IC50 (Human thrombin): < 500 nM

CON=C(N)c1ccc(CNC(=O)[C@@H]2CCN2C(=O)C(O)c2cc(Cl)cc(N(C)C)c2)cc1 (single isomer, unassigned) [Example 12, Ph(3-Cl,5-NMe2)-(R) or-(S)CH(OH)C(O)-Aze-Pab(OMe)]
formation of the corresponding active inhibitor (free amidine) [1]: exhibited formation of the corresponding active inhibitor

CON=C(N)c1ccc(CNC(=O)C2CCN2C(=O)C(O)c2cc(Cl)cc(N(C)C(C)=O)c2)cc1.O=C(O)C(F)(F)F (single isomer, unassigned) [Example 18, Ph(3-Cl,5-NMeAc)-(R) or-(S)CH(OH)C(O)-Aze-Pab(OMe)×TFA]
formation of the corresponding active inhibitor (free amidine) [1]: exhibited formation of the corresponding active inhibitor

N=C(N)c1ccc(CNC(=O)C2CCN2C(=O)C(O)c2cc(Cl)cc(-n3cccc3)c2)cc1 (single isomer, unassigned) [Example 20, Ph(3-Cl,5-Pyrrolo)-(R) or-(S)CH(OH)C(O)-Aze-Pab]
IC50 (Human thrombin): < 500 nM

CCCON=C(N)c1ccc(CNC(=O)C2CCN2C(=O)C(O)c2cc(Cl)cc(N3CCCC3=O)c2)cc1 (single isomer, unassigned) [Example 21, Ph(3-Cl,5-(1-Pyrrolidin-2-one))-(R) or-(S)CH(OH)C(O)-Aze-Pab(O-n-Pr)]
formation of the corresponding active inhibitor (free amidine) [1]: exhibited formation of the corresponding active inhibitor

CN(C)c1cccc(C(O)C(=O)N2CCC2C(=O)NCc2ccc(C(=N)N)cc2)c1 [Example 1, Ph(3-N(Me)2)-(R)- or-(S)CH(OH)—C(O)-Aze-Pab×HOAc]
IC50 (Human thrombin): < 500 nM

CON=C(N)c1ccc(CNC(=O)C2CCN2C(=O)C(O)c2cccc(N(C)C)c2)cc1 [Example 2, Ph(3-N(Me)2)-(R)- or-(S)CH(OH)—CO-Aze-Pab(OMe)]
formation of the corresponding active inhibitor (free amidine) [1]: exhibited formation of the corresponding active inhibitor

CSc1cccc(C(O)C(=O)N2CCC2C(=O)NCc2ccc(C(=N)N)cc2)c1 [Example 3, Ph(3-SMe)-(R)- or-(S)CH(OH)C(O)-Aze-Pab×TFA]
IC50 (Human thrombin): < 500 nM

Ph(3-(1-Pyrrolidine))-(R)- or -(S)—CH(OH)C(O)-Aze-Pab×2TFA [Example 11]
IC50 (Human thrombin): < 500 nM

Ph(3-Cl,5-NMe2)-(R) or -(S)CH(OH)C(O)-Aze-Pab(O-Et) [Example 13]
formation of the corresponding active inhibitor (free amidine) [1]: exhibited formation of the corresponding active inhibitor

Ph(3-Cl,5-NMe2)-(R) or -(S)CH(OH)C(O)-Aze-Pab(O-THP) [Example 17]
formation of the corresponding active inhibitor (free amidine) [1]: exhibited formation of the corresponding active inhibitor

Ph(3-Cl,5-NMe2)-(R) or -(S)CH(OH)C(O)-Aze-Pab(O-i-Pr) [Example 15]
formation of the corresponding active inhibitor (free amidine) [1]: exhibited formation of the corresponding active inhibitor

Ph(3-Cl,5-NMe2)-(R) or -(S)CH(OH)C(O)-Aze-Pab(O—CH2—CH2—O—CH3) [Example 16]
formation of the corresponding active inhibitor (free amidine) [1]: exhibited formation of the corresponding active inhibitor

Ph(3-Cl,5-NMe)-(R) or -(S)CH(OH)C(O)-Aze-Pab(O-n-Pr) [Example 14]
formation of the corresponding active inhibitor (free amidine) [1]: exhibited formation of the corresponding active inhibitor
